# Laboratory results taken from the supplement of paper PMC8728848.
# Some of the results follow.
# Columns and labels:
# Experiment in all cases: glycan array binding signal (z-score within array); higher = stronger binding
# Conditions in all cases: glycan notation: IUPAC condensed, linker removed
# [1] = biological target: Fuc(a1-2)Gal
# How it was run: (§1)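 Glycan array data came from 3228 arrays in the Consortium for Functional Glycomics database, and only arrays with an available protein sequence were kept. Glycan names were put into IUPAC-condensed notation, and columns mapping to the same glycan were averaged. The binding signal is a within-array Z-score, averaged across arrays of one protein sequence run at different concentrations or buffers and across linkers. A negative Z-score can be read as non-binding.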
# [2] = biological target: Fuc(a1-2)Gal(b1-3)GalNAc
# How it was run: as §1
# [3] = biological target: Fuc(a1-2)Gal(b1-3)GalNAc(a1-3)[Fuc(a1-2)]Gal(b1-4)Glc
# How it was run: as §1
# [4] = biological target: Fuc(a1-2)Gal(b1-3)GalNAc(a1-3)[Fuc(a1-2)]Gal(b1-4)GlcNAc
# How it was run: as §1
# [5] = biological target: Fuc(a1-2)Gal(b1-3)GalNAc(b1-3)Gal
# How it was run: as §1
# [6] = biological target: Fuc(a1-2)Gal(b1-3)GalNAc(b1-3)Gal(a1-4)Gal(b1-4)Glc
# How it was run: as §1
# [7] = biological target: Fuc(a1-2)Gal(b1-3)GalNAc(b1-4)[Neu5Ac(a2-3)]Gal(b1-4)Glc
# How it was run: as §1
# [8] = biological target: Fuc(a1-2)Gal(b1-3)GlcNAc
# How it was run: as §1
# [9] = biological target: Fuc(a1-2)Gal(b1-3)GlcNAc(b1-2)Man(a1-3)[Fuc(a1-2)Gal(b1-3)GlcNAc(b1-2)Man(a1-6)]Man(b1-4)GlcNAc(b1-4)GlcNAc
# How it was run: as §1
# [10] = biological target: Fuc(a1-2)Gal(b1-3)GlcNAc(b1-2)Man(a1-3)[Fuc(a1-2)Gal(b1-3)GlcNAc(b1-2)Man(a1-6)]Man(b1-4)GlcNAc(b1-4)[Fuc(a1-6)]GlcNAc
# How it was run: as §1
# [11] = biological target: Fuc(a1-2)Gal(b1-3)GlcNAc(b1-3)Gal(b1-4)Glc
# How it was run: as §1
# [12] = biological target: Fuc(a1-2)Gal(b1-3)GlcNAc(b1-3)GalNAc
# How it was run: as §1
# [13] = biological target: Fuc(a1-2)Gal(b1-3)GlcNAc(b1-3)[Fuc(a1-2)Gal(b1-3)GlcNAc(b1-6)]GalNAc
# How it was run: as §1
# [14] = biological target: Fuc(a1-2)Gal(b1-3)GlcNAc(b1-3)[Gal(b1-4)GlcNAc(b1-6)]Gal(b1-4)Glc
# How it was run: as §1
# [15] = biological target: Fuc(a1-2)Gal(b1-3)GlcNAc(b1-3)[Neu5Ac(a2-6)Gal(b1-4)GlcNAc(b1-6)]Gal(b1-4)Glc
# How it was run: as §1
# [16] = biological target: Fuc(a1-2)Gal(b1-3)GlcNAc6S
# How it was run: as §1
# [17] = biological target: Fuc(a1-2)Gal(b1-3)[Fuc(a1-4)]GlcNAc
# How it was run: as §1
# [18] = biological target: Fuc(a1-2)Gal(b1-3)[Fuc(a1-4)]GlcNAc(b1-2)Man(a1-3)[Fuc(a1-2)Gal(b1-3)[Fuc(a1-4)]GlcNAc(b1-2)Man(a1-3)]Man(b1-4)GlcNAc(b1-4)GlcNAc
# How it was run: as §1
# [19] = biological target: Fuc(a1-2)Gal(b1-3)[Fuc(a1-4)]GlcNAc(b1-2)Man(a1-3)[Fuc(a1-2)Gal(b1-3)[Fuc(a1-4)]GlcNAc(b1-2)Man(a1-6)]Man(b1-4)GlcNAc(b1-4)[Fuc(a1-6)]GlcNAc(b1-4)[Fuc(a1-6)]GlcNAc
# How it was run: as §1
# [20] = biological target: Fuc(a1-2)Gal(b1-3)[Fuc(a1-4)]GlcNAc(b1-3)[Fuc(a1-3)[Gal(b1-4)]GlcNAc(b1-6)]Gal(b1-4)Glc
# How it was run: as §1
# [21] = biological target: Fuc(a1-2)Gal(b1-3)[Fuc(a1-4)]GlcNAc(b1-3)[Gal(b1-4)GlcNAc(b1-6)]Gal(b1-4)Glc
# How it was run: as §1
# [22] = biological target: Fuc(a1-2)Gal(b1-4)Fuc(a1-3)]GlcNAc(b1-2)Man(a1-3)[Fuc(a1-2)Gal(b1-4)[Fuc(a1-3)]GlcNAc(b1-2)Man(a1-6)]Man(b1-4)GlcNAc(b1-4)GlcNAc
# How it was run: as §1
# [23] = biological target: Fuc(a1-2)Gal(b1-4)Glc
# How it was run: as §1
# [24] = biological target: Fuc(a1-2)Gal(b1-4)Glc6S
# How it was run: as §1
# [25] = biological target: Fuc(a1-2)Gal(b1-4)GlcNAc
# How it was run: as §1
# [26] = biological target: Fuc(a1-2)Gal(b1-4)GlcNAc(b1-2)Man
# How it was run: as §1
# [27] = biological target: Fuc(a1-2)Gal(b1-4)GlcNAc(b1-2)Man(a1-3)[Fuc(a1-2)Gal(b1-4)GlcNAc(b1-2)Man(a1-6)]Man(b1-4)GlcNAc(b1-4)GlcNAc
# How it was run: as §1
# [28] = biological target: Fuc(a1-2)Gal(b1-4)GlcNAc(b1-2)Man(a1-3)[Fuc(a1-2)Gal(b1-4)GlcNAc(b1-2)Man(a1-6)]Man(b1-4)GlcNAc(b1-4)[Fuc(a1-6)]GlcNAc
# How it was run: as §1
# [29] = biological target: Fuc(a1-2)Gal(b1-4)GlcNAc(b1-2)[Fuc(a1-2)Gal(b1-4)GlcNAc(b1-4)]Man(a1-3)[Fuc(a1-2)Gal(b1-4)GlcNAc(b1-2)Man(a1-6)]Man(b1-4)GlcNAc(b1-4)GlcNAc
# How it was run: as §1
# [30] = biological target: Fuc(a1-2)Gal(b1-4)GlcNAc(b1-3)Gal(b1-4)GlcNAc
# How it was run: as §1
# [31] = biological target: Fuc(a1-2)Gal(b1-4)GlcNAc(b1-3)Gal(b1-4)GlcNAc(b1-2)Man(a1-3)[Fuc(a1-2)Gal(b1-4)GlcNAc(b1-3)Gal(b1-4)GlcNAc(b1-2)Man(a1-6)]Man(b1-4)GlcNAc(b1-4)GlcNAc
# How it was run: as §1
# [32] = biological target: Fuc(a1-2)Gal(b1-4)GlcNAc(b1-3)Gal(b1-4)GlcNAc(b1-3)Gal(b1-4)GlcNAc
# How it was run: as §1
# [33] = biological target: Fuc(a1-2)Gal(b1-4)GlcNAc(b1-3)GalNAc
# How it was run: as §1
# [34] = biological target: Fuc(a1-2)Gal(b1-4)GlcNAc(b1-3)[Fuc(a1-2)Gal(b1-4)GlcNAc(b1-6)]GalNAc
# How it was run: as §1
# [35] = biological target: Fuc(a1-2)Gal(b1-4)GlcNAc(b1-3)[Fuc(a1-3)[Gal(b1-4)]GlcNAc(b1-6)]Gal(b1-4)Glc
# How it was run: as §1
# [36] = biological target: Fuc(a1-2)Gal(b1-4)GlcNAc(b1-6)GalNAc
# How it was run: as §1
# [37] = biological target: Fuc(a1-2)Gal(b1-4)GlcNAc6S
# How it was run: as §1
binder,measurement,setting,value
Drgal1 (Danio rerio) (protein) MAGVLIQNMSFKVGQTLTITGVPKPDSTNFAINIGHSPEDIALHMNPRFDAHGDQCTIVCNSFQSGSWCEEHRDDNFPFIQDKEFQIKITFTNEEFLVTLPDGSEIHFPNRQGSEKYKYMYFEGEVRIQGVEIK,glycan array binding signal (z-score),[1],-0.138
same,glycan array binding signal (z-score),[2],-0.255
same,glycan array binding signal (z-score),[3],-0.59
same,glycan array binding signal (z-score),[4],-0.433
same,glycan array binding signal (z-score),[5],-0.176
same,glycan array binding signal (z-score),[6],-0.101
same,glycan array binding signal (z-score),[7],-0.367
same,glycan array binding signal (z-score),[8],-0.486
same,glycan array binding signal (z-score),[9],0.528
same,glycan array binding signal (z-score),[10],0.673
same,glycan array binding signal (z-score),[11],-0.304
same,glycan array binding signal (z-score),[12],-0.612
same,glycan array binding signal (z-score),[13],-0.218
same,glycan array binding signal (z-score),[14],-0.134
same,glycan array binding signal (z-score),[15],-0.466
same,glycan array binding signal (z-score),[16],-0.452
same,glycan array binding signal (z-score),[17],-0.637
same,glycan array binding signal (z-score),[18],-0.29
same,glycan array binding signal (z-score),[19],-0.396
same,glycan array binding signal (z-score),[20],-0.415
same,glycan array binding signal (z-score),[21],0.383
same,glycan array binding signal (z-score),[22],0.914
same,glycan array binding signal (z-score),[23],-0.299
same,glycan array binding signal (z-score),[24],-0.543
same,glycan array binding signal (z-score),[25],-0.353
same,glycan array binding signal (z-score),[26],-0.09
same,glycan array binding signal (z-score),[27],0.669
same,glycan array binding signal (z-score),[28],-0.202
same,glycan array binding signal (z-score),[29],-0.434
same,glycan array binding signal (z-score),[30],-0.642
same,glycan array binding signal (z-score),[31],1.25
same,glycan array binding signal (z-score),[32],0.077
same,glycan array binding signal (z-score),[33],0.016
same,glycan array binding signal (z-score),[34],-0.246
same,glycan array binding signal (z-score),[35],-0.404
same,glycan array binding signal (z-score),[36],-0.575
same,glycan array binding signal (z-score),[37],-0.48

# Random excerpt: two entries already listed.
binder,measurement,setting,value
Drgal1 (Danio rerio) (protein) MAGVLIQNMSFKVGQTLTITGVPKPDSTNFAINIGHSPEDIALHMNPRFDAHGDQCTIVCNSFQSGSWCEEHRDDNFPFIQDKEFQIKITFTNEEFLVTLPDGSEIHFPNRQGSEKYKYMYFEGEVRIQGVEIK,glycan array binding signal (z-score),[12],-0.612
same,glycan array binding signal (z-score),[17],-0.637
